Results reported in PMC4452847.
These are yes or no findings as the source states them, for the method shown. Binding seen in cells or lysates may run through a third protein. Some binding calls cover weakened binding; strength is not graded here. Sequences can lack the tags named with a protein.

Molecular target: myc-tagged kalirin-7 (pEAK10-His-Myc-Kal7) (UniProt P97924)
Assay: co-IP; lysates of HEK293 cells transfected singly with HA-NL1-AB, myc-Kal-7 or FLAG-DISC1 were mixed as indicated (with or without the third lysate), then immunoprecipitated; immunoblot

binding: binds
B1: mouse FLAG-myc-tagged DISC1 (protein, UniProt Q811T9 1-852)
chain: MQGGGPRGAPIHSPSHGADSGHGLPPAVAPQRRRLTRRPGYMRSTAGSGIGFLSPAVGMPHPSSAGLTGQQSQHSQSKAGQCGLDPGSHCQASLVGKPFLKSSLVPAVASEGHLHPAQRSMRKRPVHFAVHSKNDSRQSERLTGSFKPGDSGFWQELLSSDSFKSLAPSLDAPWNKGSRGLKTVKPLASPALNGPADIASLPGFQDTFTSSFSFIQLSLGAAGERGEAEGCLPSREAEPLHQRPQEMAAEASSSDRPHGDPRHLWTFSLHAAPGLADLAQVTRSSSRQSECGTVSSSSSDTGFSSQDASSAGGRGDQGGGWADAHGWHTLLREWEPMLQDYLLSNRRQLEVTSLILKLQKCQEKVVEDGDYDTAETLRQRLEELEQEKGRLSWALPSQQPALRSFLGYLAAQIQVALHGATQRAGSDDPEAPLEGQLRTTAQDSLPASITRRDWLIREKQRLQKEIEALQARMSALEAKEKRLSQELEEQEVLLRWPGCDLMALVAQMSPGQLQEVSKALGETLTSANQAPFQVEPPETLRSLRERTKSLNLAVRELTAQVCSGEKLCSSLRRRLSDLDTRLPALLEAKMLALSGSCFSTAKELTEEIWALSSEREGLEMFLGRLLALSSRNSRRLGIVKEDHLRCRQDLALQDAAHKTRMKANTVKCMEVLEGQLSSCRCPLLGRVWKADLETCQLLMQSLQLQEAGSSPHAEDEEQVHSTGEAAQTAALAVPRTPHPEEEKSPLQVLQEWDTHSALSPHCAAGPWKEDSHIVSAEVGEKCEAIGVKLLHLEDQLLGAMYSHDEALFQSLQGELQTVKETLQAMILQLQPTKEAGEASASYPTAGAQETEA
